Test results from patent US20180344763A1, “METHODS FOR ADVERSELY AFFECTING BIOFILMS” (Commonwealth Scientific and Industrial Research Organisation, priority 2015, published 2018).
≈ marks a conversion by molar mass, not a printed value.

Experiments:
C. albicans [1] = assay: Broth microdilution MIC, planktonic cells; format: cell-based; conditions: Candida albicans; C. albicans single species culture, RPMI-1640, 48 h
Experimental: (§1) Minimum inhibitory concentrations (MICs) for antibacterial and antifungal agents were determined using the broth microdilution method according to CLSI guidelines M07-A9 (for S. aureus) and M27-A3 (for C. albicans), but replacing Muller-Hinton broth with RPMI-1640 for antibacterial MIC testing. One hundred microlitres of two-fold serial dilutions of the drugs prepared in RPMI-1640 were added into the wells of 96-well microplates. Exponentially grown cultures were diluted in RPMI-1640 to a density of ˜1×10^3 CFU/mL for C. albicans and ˜1×10^6 CFU/mL for S. aureus and 100 μL were added to each well. Microplates were incubated for 18 h at 35° C. for S. aureus and 48 h for C. albicans. Bacterial or fungal growth was examined visually with the aid of a mirror reader. The antibacterial MIC was defined as the lowest concentration resulting in complete growth inhibition. The MIC of antifungals was read as the lowest concentration that prevents discernible growth for amphotericin B or polymers, or as the lowest concentration that inhibits at least 50% of fungal growth for fluconazole and caspofungin, corresponding to a score of zero or two in the CLSI M27-A3 protocol.

C. albicans [2] = assay: Planktonic MIC in presence or absence of isolated biofilm matrix; format: cell-based; conditions: Candida albicans, no biofilm matrix, read-out: MIC, medium only
Experimental: as §1
Extracellular matrix was isolated from Candida or polymicrobial biofilms following the method reported in PLoS pathogens 2012, 8:e1002848. Biofilms were established by growing cultures in 6-well TCPS microplates for 48 h at 37° C. […]

MIC (C. albicans [1]): 0.5 µg/mL (≈ 1.63 µM) | MIC (C. albicans [2]): 0.5 µg/mL (≈ 1.63 µM)
SMILES: OC(Cn1cncn1)(Cn1cncn1)c1ccc(F)cc1F [Fluconazole, fluconazole]
